Assay [1] concerns the target NMDA receptor subunit GluN2B (rat (endogenous in cultured cortical neurons)) (UniProt Q00960). The experiment in a line: co-IP; endogenous proteins in lysates (500 µg) of rat cortical neurons 12 d in culture; capture antibody (5 µg) prebound to protein A magnetic beads, overnight at 4 °C; immunoblot; cells treated with sham OGD or 30 min OGD and 1 h recovery, with or without 3 µM jasplakinolide. A general note: In western blotting, separated proteins are transferred to a membrane and probed.

Assay [2] has as its target NMDA receptor subunit GluN2A (rat (endogenous in cultured cortical neurons)) (UniProt Q00959). The assay is described as above.

These are yes or no findings as the source states them, for the method shown. Binding seen in cells or lysates may run through a third protein. Some binding calls cover weakened binding; strength is not graded here.

This note sets out measurements from paper PMC9496625.

Consider “NMDA receptor subunit GluN2A (from UniProt Q00959 23-1464)”, for which the binding result in assay [1] is on record as “binds”.

For “NMDA receptor subunit GluN2B (from UniProt Q00960 27-1482)”, the binding entry in assay [2] is reported as “binds”.
